Reference: the supplement of paper PMC10849652
The list shows a part of the results.

By UniProt entry, the sequences of proteins in these tests, tags left out. Where a name states a change or a piece, a line headed by the entry shows the natural chain unless it says otherwise.
UniProt P35813: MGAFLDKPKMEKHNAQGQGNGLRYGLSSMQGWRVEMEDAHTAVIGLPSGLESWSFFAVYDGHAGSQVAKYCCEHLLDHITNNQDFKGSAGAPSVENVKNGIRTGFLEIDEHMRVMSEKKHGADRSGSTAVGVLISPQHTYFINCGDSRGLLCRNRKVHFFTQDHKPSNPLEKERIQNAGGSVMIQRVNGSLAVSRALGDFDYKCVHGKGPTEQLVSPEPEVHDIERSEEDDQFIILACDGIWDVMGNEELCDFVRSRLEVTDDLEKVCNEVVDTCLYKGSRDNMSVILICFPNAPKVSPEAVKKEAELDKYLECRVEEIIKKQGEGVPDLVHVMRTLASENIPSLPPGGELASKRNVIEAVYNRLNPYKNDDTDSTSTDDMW
UniProt P13797: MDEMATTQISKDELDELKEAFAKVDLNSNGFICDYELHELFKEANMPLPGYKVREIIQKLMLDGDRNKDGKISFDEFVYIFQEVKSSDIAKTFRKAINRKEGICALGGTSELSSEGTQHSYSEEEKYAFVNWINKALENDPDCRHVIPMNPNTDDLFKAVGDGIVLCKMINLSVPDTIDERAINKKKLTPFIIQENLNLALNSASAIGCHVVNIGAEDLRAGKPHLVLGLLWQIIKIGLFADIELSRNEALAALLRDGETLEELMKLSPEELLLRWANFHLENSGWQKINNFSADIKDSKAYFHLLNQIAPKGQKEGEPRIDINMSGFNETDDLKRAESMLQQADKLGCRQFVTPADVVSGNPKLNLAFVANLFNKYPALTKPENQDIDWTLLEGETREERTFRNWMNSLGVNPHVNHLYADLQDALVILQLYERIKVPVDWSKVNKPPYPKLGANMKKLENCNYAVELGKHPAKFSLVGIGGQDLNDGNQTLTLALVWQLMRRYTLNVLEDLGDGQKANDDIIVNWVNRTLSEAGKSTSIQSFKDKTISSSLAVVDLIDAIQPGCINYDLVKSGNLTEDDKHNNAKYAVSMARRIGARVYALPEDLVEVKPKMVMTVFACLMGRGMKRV
UniProt Q9Y3C6: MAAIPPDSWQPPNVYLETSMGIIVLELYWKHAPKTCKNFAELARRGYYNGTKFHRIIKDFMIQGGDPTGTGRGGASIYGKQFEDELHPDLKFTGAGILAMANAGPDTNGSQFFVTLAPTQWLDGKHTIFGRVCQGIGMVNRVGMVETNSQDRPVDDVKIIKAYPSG
UniProt O15031: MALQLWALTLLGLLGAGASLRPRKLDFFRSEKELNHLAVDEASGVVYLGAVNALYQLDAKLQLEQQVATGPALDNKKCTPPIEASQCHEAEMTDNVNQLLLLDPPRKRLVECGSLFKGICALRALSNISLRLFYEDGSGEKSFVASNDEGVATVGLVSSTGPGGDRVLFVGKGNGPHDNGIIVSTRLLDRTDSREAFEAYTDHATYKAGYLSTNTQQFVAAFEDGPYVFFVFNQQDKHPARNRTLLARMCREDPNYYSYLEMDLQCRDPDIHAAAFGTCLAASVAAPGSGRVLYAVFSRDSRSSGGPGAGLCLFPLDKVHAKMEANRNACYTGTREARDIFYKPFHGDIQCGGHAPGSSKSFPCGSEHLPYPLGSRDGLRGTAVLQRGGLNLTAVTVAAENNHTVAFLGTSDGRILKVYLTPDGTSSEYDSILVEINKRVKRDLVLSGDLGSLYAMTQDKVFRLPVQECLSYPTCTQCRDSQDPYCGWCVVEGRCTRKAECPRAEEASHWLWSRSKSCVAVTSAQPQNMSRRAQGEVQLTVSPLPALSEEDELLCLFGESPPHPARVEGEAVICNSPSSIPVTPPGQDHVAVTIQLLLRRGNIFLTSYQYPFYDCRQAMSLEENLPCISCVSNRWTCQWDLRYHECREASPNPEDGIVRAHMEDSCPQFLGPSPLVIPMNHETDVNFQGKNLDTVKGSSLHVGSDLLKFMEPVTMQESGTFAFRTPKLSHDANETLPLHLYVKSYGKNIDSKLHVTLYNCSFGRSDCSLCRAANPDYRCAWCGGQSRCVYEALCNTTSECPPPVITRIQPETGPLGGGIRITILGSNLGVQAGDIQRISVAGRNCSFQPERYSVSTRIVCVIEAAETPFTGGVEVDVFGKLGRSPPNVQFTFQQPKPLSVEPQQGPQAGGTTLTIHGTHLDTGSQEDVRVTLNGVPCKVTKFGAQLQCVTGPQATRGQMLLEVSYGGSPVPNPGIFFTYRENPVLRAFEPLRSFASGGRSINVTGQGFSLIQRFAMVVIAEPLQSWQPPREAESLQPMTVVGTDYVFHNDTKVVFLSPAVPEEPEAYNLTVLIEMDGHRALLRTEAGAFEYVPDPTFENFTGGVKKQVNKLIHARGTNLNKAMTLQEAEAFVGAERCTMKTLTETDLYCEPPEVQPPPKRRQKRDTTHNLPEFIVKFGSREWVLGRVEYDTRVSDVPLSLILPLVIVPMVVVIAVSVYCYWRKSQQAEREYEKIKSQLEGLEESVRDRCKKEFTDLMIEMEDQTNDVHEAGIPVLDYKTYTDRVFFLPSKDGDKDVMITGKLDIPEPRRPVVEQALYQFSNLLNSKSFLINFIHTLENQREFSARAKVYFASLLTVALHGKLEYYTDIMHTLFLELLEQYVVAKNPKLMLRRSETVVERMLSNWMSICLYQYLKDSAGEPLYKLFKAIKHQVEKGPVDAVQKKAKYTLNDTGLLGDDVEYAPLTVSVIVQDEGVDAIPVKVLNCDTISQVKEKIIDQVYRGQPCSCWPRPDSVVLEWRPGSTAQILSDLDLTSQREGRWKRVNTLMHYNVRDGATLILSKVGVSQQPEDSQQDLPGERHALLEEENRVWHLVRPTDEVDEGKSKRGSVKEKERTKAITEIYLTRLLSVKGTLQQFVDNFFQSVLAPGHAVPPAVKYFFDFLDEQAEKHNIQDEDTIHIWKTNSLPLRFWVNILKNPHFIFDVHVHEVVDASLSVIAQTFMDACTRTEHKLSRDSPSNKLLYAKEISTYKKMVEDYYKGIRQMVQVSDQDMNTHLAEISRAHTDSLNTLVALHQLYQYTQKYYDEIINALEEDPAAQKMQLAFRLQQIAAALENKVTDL
UniProt Q8TF01: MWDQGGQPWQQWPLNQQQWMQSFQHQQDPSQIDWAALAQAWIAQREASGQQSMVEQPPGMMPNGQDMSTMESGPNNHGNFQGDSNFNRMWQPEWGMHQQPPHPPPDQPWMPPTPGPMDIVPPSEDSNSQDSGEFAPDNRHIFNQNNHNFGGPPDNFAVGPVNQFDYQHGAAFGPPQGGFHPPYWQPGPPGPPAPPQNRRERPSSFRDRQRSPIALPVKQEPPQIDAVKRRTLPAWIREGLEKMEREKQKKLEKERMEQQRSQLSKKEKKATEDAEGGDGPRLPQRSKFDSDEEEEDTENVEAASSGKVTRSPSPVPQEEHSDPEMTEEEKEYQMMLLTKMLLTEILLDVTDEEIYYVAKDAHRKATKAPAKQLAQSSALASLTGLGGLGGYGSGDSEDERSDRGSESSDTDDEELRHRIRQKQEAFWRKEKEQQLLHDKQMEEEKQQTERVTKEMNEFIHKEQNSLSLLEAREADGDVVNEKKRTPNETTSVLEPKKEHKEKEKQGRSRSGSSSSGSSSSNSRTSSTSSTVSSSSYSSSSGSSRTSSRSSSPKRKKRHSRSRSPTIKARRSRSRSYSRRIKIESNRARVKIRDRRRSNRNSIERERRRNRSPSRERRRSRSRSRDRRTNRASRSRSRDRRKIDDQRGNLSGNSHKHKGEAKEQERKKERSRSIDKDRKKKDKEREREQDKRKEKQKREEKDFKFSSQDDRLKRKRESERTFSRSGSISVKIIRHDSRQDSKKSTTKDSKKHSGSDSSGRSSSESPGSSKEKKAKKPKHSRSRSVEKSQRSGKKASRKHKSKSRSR
UniProt P00747, whole entry, looked up: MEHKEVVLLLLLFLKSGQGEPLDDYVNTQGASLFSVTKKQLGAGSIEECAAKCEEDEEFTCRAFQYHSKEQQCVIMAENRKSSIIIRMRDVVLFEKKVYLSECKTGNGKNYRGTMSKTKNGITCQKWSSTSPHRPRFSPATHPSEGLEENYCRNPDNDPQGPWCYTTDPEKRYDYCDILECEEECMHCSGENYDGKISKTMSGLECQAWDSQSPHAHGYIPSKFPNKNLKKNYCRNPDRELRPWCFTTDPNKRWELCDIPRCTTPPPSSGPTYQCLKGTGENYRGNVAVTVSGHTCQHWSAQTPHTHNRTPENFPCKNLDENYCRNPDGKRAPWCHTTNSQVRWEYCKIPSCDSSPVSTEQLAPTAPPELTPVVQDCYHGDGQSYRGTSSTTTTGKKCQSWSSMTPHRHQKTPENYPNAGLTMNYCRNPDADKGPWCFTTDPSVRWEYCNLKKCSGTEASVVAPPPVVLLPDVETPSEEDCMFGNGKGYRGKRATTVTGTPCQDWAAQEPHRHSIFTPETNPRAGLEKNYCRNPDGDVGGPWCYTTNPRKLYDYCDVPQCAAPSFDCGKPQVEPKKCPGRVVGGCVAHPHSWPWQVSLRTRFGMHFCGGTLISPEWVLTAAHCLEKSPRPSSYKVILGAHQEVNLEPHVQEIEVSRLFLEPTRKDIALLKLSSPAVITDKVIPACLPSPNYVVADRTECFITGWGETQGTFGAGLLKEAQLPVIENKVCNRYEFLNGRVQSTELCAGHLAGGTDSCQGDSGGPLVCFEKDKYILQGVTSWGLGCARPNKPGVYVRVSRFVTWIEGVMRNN
UniProt O15160, whole entry, looked up: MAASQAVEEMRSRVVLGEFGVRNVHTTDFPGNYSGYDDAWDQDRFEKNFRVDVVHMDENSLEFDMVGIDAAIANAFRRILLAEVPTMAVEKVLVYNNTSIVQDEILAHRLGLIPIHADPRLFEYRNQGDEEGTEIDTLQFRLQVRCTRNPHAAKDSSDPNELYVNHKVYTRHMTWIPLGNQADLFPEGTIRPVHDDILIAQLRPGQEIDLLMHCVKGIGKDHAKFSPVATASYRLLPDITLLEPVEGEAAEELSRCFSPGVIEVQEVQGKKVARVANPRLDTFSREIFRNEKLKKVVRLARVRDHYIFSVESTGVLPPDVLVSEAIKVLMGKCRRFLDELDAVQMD
UniProt Q15054: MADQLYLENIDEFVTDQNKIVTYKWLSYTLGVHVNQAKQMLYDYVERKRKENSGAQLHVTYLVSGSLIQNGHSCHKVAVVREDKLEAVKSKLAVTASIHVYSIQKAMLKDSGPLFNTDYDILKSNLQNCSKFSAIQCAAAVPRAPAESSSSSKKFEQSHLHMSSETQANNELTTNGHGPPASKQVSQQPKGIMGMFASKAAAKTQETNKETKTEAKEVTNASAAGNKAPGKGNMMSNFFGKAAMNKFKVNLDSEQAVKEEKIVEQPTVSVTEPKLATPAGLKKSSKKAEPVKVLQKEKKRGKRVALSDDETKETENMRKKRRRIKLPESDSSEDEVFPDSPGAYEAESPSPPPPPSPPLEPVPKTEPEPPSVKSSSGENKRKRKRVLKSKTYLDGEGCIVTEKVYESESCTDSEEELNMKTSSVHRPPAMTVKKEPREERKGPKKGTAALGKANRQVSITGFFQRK
UniProt Q15181: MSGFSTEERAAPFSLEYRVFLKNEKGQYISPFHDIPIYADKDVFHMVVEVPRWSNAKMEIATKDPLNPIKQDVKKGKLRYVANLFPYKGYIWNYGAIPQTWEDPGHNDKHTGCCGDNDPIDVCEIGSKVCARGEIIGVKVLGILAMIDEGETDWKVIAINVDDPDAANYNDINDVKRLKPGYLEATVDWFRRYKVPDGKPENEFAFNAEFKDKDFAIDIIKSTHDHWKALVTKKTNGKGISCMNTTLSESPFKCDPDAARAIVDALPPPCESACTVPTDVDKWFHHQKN
UniProt O15162: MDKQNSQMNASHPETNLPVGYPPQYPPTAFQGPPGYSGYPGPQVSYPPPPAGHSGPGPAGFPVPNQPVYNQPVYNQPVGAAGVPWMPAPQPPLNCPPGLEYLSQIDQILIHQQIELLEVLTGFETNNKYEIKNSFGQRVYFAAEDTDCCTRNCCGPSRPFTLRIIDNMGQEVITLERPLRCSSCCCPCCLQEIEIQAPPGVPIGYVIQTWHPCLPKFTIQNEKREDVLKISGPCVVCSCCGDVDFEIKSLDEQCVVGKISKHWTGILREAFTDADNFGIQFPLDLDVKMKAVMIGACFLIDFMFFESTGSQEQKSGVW
UniProt Q9NVS9: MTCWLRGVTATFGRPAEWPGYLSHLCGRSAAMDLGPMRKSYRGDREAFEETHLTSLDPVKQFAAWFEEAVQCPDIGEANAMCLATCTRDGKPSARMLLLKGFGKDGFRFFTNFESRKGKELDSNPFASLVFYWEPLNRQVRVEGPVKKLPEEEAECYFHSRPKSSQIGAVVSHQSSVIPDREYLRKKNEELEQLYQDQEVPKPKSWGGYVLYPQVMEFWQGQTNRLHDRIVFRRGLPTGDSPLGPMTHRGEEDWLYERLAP
UniProt Q969H6: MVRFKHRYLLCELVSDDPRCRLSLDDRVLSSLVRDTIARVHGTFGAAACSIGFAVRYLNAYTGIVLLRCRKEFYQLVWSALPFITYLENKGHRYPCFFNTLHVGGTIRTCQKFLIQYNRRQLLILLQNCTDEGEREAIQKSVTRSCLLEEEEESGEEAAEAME

Experiments:
Test in all cases: log2 fold change, soluble protein after heating vs DMSO (PISA); higher = thermal stabilisation; K562 cells, 10 uM, 30 min; active = over 0.2 and 3.5 SD of the protein, either way, in both replicates (recomputed)
[1] = compound: C1=CC=C(C=C1)[C@H](COC2=CC3=C(C=C2)NC(=O)N3)NC(=O)C4=CC=CN(C4=O)CC5=CC(=C(C=C5)F)F
Method in brief: (§1)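 Values are thermal stability changes relative to control samples and are taken from duplicates. They are stated as log2 fold changes. Before quantification by TMTpro 16plex LC-MS/MS with equalised channel sums, K562 cells at 2×10^6 cells/mL were treated with 10 μM compound for 30 min, heated in aliquots for 3 min across 48°C-58°C, pooled, extracted in PBS with 0.5% NP-40 at 4°C, and centrifuged at 21,000xg for 90 min to give the soluble supernatant.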

[2] = compound: CC1=C(SC2=C1C(=N[C@H](C3=NN=C(N32)C)CC(=O)N)C4=CC=C(C=C4)Cl)C
Method in brief: as §1

[3] = compound: CC1=C2C(=CC=C1)N=C(N(C2=O)C3=CC=CC=C3C)CN4C=NC5=C(N=CN=C54)N
Method in brief: as §1

[4] = compound: Cc1sc2c(c1C)C(c1ccc(Cl)cc1)=N[C@@H](CC(=O)OC(C)(C)C)c1nnc(C)n1-2
Method in brief: as §1

[5] = compound: c1ccc([C@@H]2C[C@H]2NC2CCNCC2)cc1
Method in brief: as §1

Measured: log2 fold change

PPM1A isoform 3 (UniProt P35813)
inactive: [1] -0.056 | [2] 0.016 | [3] 0.078 | [4] 0.026 | [5] -0.06

PLS3 (UniProt P13797)
inactive: [1] -0.02 | [2] 0.016 | [3] 0.054 | [4] 0.009 | [5] -0.004

PMM2 (UniProt O15305)
inactive: [1] 0.003 | [2] 0.046 | [3] -0.027 | [4] 0.06 | [5] 0.009

POLR3E (UniProt Q9NVU0)
inactive: [1] -0.126 | [2] -0.004 | [3] 0.142 | [4] 0.006 | [5] -0.046

POMP (UniProt Q9Y244)
inactive: [1] -0.101 | [2] -0.077 | [3] -0.069 | [4] -0.018 | [5] -0.009

PPIA isoform 2 (UniProt P62937)
inactive: [1] -0.248 | [2] 0.061 | [3] 0.2 | [4] -0.026 | [5] 0.075

PPIL1 (UniProt Q9Y3C6)
inactive: [1] -0.046 | [2] 0.012 | [3] 0.021 | [4] 0.032 | [5] -0.052

Random excerpt: 2 records from the list
PPIL1 (UniProt Q9Y3C6)
inactive: [1] -0.046 | [2] 0.012 | [3] 0.021 | [4] 0.032 | [5] -0.052

POMP (UniProt Q9Y244)
inactive: [1] -0.101 | [2] -0.077 | [3] -0.069 | [4] -0.018 | [5] -0.009

Following part:

PMVK (UniProt Q15126)
inactive: [1] -0.156 | [2] 0.004 | [3] 0.116 | [4] 0.063 | [5] 0.028

PLXNB2 (UniProt O15031)
inactive: [1] 0.016 | [2] 0.07 | [3] 0.035 | [4] -0.021 | [5] 0.008

PNPLA4 (UniProt P41247)
inactive: [1] 0.068 | [2] 0.158 | [3] 0.042 | [4] 0.099 | [5] 0.178

PNISR (UniProt Q8TF01)
inactive: [1] 0.055 | [2] -0.024 | [3] 0.008 | [4] -0.022 | [5] 0.04

PLG (UniProt P00747)
inactive: [1] 0.026 | [2] -0.056 | [3] -0.125 | [4] 0.046 | [5] 0.065

POLR1C (UniProt O15160)
inactive: [1] -0.08 | [2] -0.025 | [3] 0.005 | [4] 0.053 | [5] 0.008

POLD3 (UniProt Q15054)
inactive: [1] -0.027 | [2] 0.14 | [3] 0.104 | [4] -0.037 | [5] -0.009

POC1A (UniProt Q8NBT0)
inactive: [1] -0.014 | [2] 0.039 | [3] -0.116 | [4] 0.367 | [5] 0.057

PLXNA1 (UniProt Q9UIW2)
inactive: [1] -0.029 | [2] 0.069 | [3] 0.035 | [4] -0.003 | [5] 0.041

PPA1 (UniProt Q15181)
inactive: [1] -0.067 | [2] 0.038 | [3] 0.057 | [4] -0.019 | [5] -0.062

POLR2C (UniProt P19387)
inactive: [1] -0.091 | [2] 0.125 | [3] -0.023 | [4] 0.155 | [5] -0.092

PLSCR1 (UniProt O15162)
inactive: [1] 0.017 | [2] 0.036 | [3] -0.016 | [4] -0.051 | [5] 0.055

PNPO (UniProt Q9NVS9)
inactive: [1] 0.048 | [2] 0.042 | [3] 0.035 | [4] -0.031 | [5] -0.022

POP5 (UniProt Q969H6)
inactive: [1] 0.118 | [2] -0.021 | [3] -0.066 | [4] 0.044 | [5] -0.034

POMT2 (UniProt Q9UKY4)
inactive: [1] -0.185 | [2] -0.05 | [3] -0.068 | [4] -0.006 | [5] 0.027

PLIN2 (UniProt Q99541)
inactive: [1] -0.063 | [2] -0.006 | [3] 0.093 | [4] 0.004 | [5] 0.015

POLR2A (UniProt P24928)
inactive: [1] -0.014 | [2] 0.158 | [3] 0.031 | [4] 0.17 | [5] -0.059
